Assay results reported in patent US8946436B2, “Oxazolidinone compounds and their uses in preparation of antibiotics” (Sichuan Gooddoctor Pharmaceutical Group Co., Ltd., priority 2011, dated 2015).
The name of at least one read-out is uncertain.

System: L-02
Assay: Cytotoxicity experiment (MTT), L-02
Assay type: cell-based
Conditions: 50 uM, 48 h, L-02 normal cells
Experimental: (1) Inoculating cells: Experimental cells in the growth of logarithmic phase were collected and suspended. The cell concentration of the suspension was adjusted so that they could be inoculated into the wells of 96-well micro plate at a density between 10^3-10^4 cells per well (200 μl per well). (2) Culturing cells: The cells were cultured at normal conditions for 3 days and then exposed to 50 uM compounds for test. (3) Coloring reaction: At 24 h, 48 h and 72 h after the cells being exposed to the compounds for test, 200 μl culture medium containing 20 μl MTT solution (5 mg/ml) was added into each well, and the well was further incubated at 37° C. for 2 hours to terminate the incubation. After the incubation, the supernatants were removed from the wells. In the event there were suspended cells in the wells, centrifugation should be performed before removal of supernatant from the wells. […] (4) Ascertainment of colorimetry: The absorbance value at 490 nm of each well was determined by Enzyme-linked immunosorbent Monitor. The growth curve of the experimental cells was plotted by taking time as x-coordinate and absorbance value as y-coordinate. In addition, an inhibition ratio could be calculated in accordance with the following formula: Inhibition ratio=(absorbance value of control group-absorbance value of administering group)/absorbance value of control group×100%.

CC(=O)NC[C@H]1CN(c2ccc(-n3nccc3-c3cccnc3)c(F)c2)C(=O)O1 [Compound 14a, (S)-N-((3-(3-fluoro-4-(5-(pyridin-3-yl)-1H-pyrazol-1-yl)phenyl)-2-oxooxazolidin-5-yl)methyl)acetamide]
Inhibition ratio: 10.36%
